Results as given in PubChem BioAssay AID1347423 (Functional Genomics Laboratory (NCATS/FGL), 2020).
Screen size: about 52,000 sequences; about 210 (0.4%) were called active.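 How the source made its calls: active means gene whose silencing raises cell survival under the drug, median off-target-corrected z-score across its silencing RNAs 2 or more; inactive means the rest.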 Some of the results follow.

Experiment: Resistance to Poly (ADP-Ribose) Polymerase inhibitor: Gene Identification via Genome-wide siRNA Screen
Conditions: mouse BRCA2 R2336H ES cells, olaparib, CellTiter-Glo viability; hits give high values
Outline: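 Mouse BRCA2 R2336H ES cells were reverse-transfected with siRNA (20 nM final), treated at 48 h with 500 nM olaparib, and read by CellTiter-Glo after 72 h. Scores: MAD-based z per siRNA, median per gene, seed off-target correction.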

Which z-score does the source give for GCGGUUAUAAUGGGACCAUTT against Knsl7 here?
Its z-score is inactive: 0.837.

Which z-score does the source give for GGUCUGUAACUGGUUCAUCTT against Tgif here?
The z-score was inactive: -2.58.

With GGAGAUGAAGUGGACAGACTT against Anapc13 as the sequence, how does the z-score read?
Its z-score is inactive: -2.22.

With GGAUGUCUGACUCAGGUCUTT against Olfr829 as the sequence, how does the z-score read?
Its z-score is inactive: 0.731.

Which z-score does the source give for GGAUCUUCCCGUGAACAUCTT against Cndp1 here?
Its z-score is inactive: 2.08.

With “CGAACAGAUAUUAUGUCAUTT against 1810009M01Rik” as the sequence, how does the z-score read?
Its z-score is inactive: 1.34.

For GCGAGUGUUUCUCUUGGGATT against Trpm5, which z-score is on record?
Its z-score is inactive: -0.223.

With GGUAGAGCAAUUUCUAACCTT against BC034099 as the sequence, how does the z-score read?
Its z-score is inactive: -0.839.

Which z-score does the source give for “CGAAUACUUGAUGUCCAUGTT against D230010M03Rik” here?
Its z-score is inactive: 0.89.

For GGUCUCAGUUUCUCAGAAUTT against Siglecl1, which z-score is on record?
Its z-score is inactive: 2.46.

For “GCUAGCUAAUCCUUGUUUATT against D130060C09Rik”, which z-score is on record?
The z-score was inactive: 1.4.

With GUCAUGCCAGCAGAAAUGCTT against Sprr2j as the sequence, how does the z-score read?
The z-score was inactive: -1.55.

For GGAAUUUUACACUUUACCUTT against Klhl11, which z-score is on record?
The z-score was inactive: 1.08.

With GGCUCACUUUAUGUCGUGUTT against Apg5l as the sequence, how does the z-score read?
Its z-score is inactive: -0.541.

Which z-score does the source give for GGAAAAACUGCUAGAUCUATT against As3mt here?
Its z-score is inactive: 0.457.

Which z-score does the source give for “GCUACGUGAAGCUAUAAACTT against 4930447C04Rik” here?
Its z-score is inactive: 0.844.

With CCAUAGAACCGUCCUAAUUTT against Tbx3 as the sequence, how does the z-score read?
Its z-score is inactive: 0.5.

For GCUUUCUGAAGUAGCAAAGTT against Nit2, which z-score is on record?
The z-score was inactive: 1.67.

With GCUGCACCAUGAAUGAGUCTT against Il4 as the sequence, how does the z-score read?
Its z-score is inactive: 1.15.

For CCACUCACCCAGAUAGGUATT against AI413582, which z-score is on record?
The z-score was inactive: 1.61.

With GCACCCGAACAUCAUUGCGTT against Map3k9 as the sequence, how does the z-score read?
The z-score was inactive: 0.469.

With GGAUCAGGCCCAACUUUAATT against Glra1 as the sequence, how does the z-score read?
The z-score was inactive: -1.81.

With GGAUCUGAAGCUGAUUACATT against AI586120 as the sequence, how does the z-score read?
The z-score was inactive: 0.211.

With GCCGUUUCGUGUGGUAUUUTT against Tm4sf1 as the sequence, how does the z-score read?
Its z-score is inactive: -2.67.

With “GGAAACAUGUCCACACUGCTT against 2700062C07Rik” as the sequence, how does the z-score read?
Its z-score is inactive: -0.301.

With GCAUGUGACUCCAUAUAAATT against Cldn15 as the sequence, how does the z-score read?
The z-score was inactive: -0.529.

Which z-score does the source give for GGUGGAGUACUUGUGUGACTT against Suv39h2 here?
The z-score was inactive: 1.87.

For GGCUGUGUGAAUUUCAUGGTT against Reln, which z-score is on record?
Its z-score is inactive: -0.322.

Which z-score does the source give for GGCAAAAUGAAGAAGCUGATT against Hdac6 here?
Its z-score is inactive: 0.864.

For GGUCAAGGCUCACUCCAAATT against Pte2b, which z-score is on record?
The z-score was inactive: -0.391.

With CCAACCUAUAAGUUAAUGATT against Mrps22 as the sequence, how does the z-score read?
The z-score was inactive: -0.953.

Which z-score does the source give for GGCAUCAAUGAGUUCGCAUTT against Dnb5 here?
Its z-score is inactive: 1.62.

Which z-score does the source give for GGCAUAUCCAGAUAAGACCTT against Tacc1 here?
The z-score was inactive: 1.36.

Which z-score does the source give for GCUAGAACUCGAUGUGGAUTT against Mapk8ip2 here?
Its z-score is inactive: -0.321.

For GGACAAACAUGGAAGCGUGTT against Itga2b, which z-score is on record?
Its z-score is inactive: 0.435.

With GCACAUACUACCUAGAAGGTT against Hoxb6 as the sequence, how does the z-score read?
Its z-score is inactive: -0.394.

For GGAAGAAAACGCAACUAUATT against Atp1b3, which z-score is on record?
The z-score was inactive: 1.31.

With “CCUACUGUACCAGUAAAGUTT against 2810422M04Rik” as the sequence, how does the z-score read?
The z-score was inactive: -0.744.

Which z-score does the source give for GGAUCAGUUGCUCCUAAACTT against Krtap6-2 here?
Its z-score is inactive: 0.391.

For GGUAGUGUCUAACUUCUGGTT against Zfp496, which z-score is on record?
Its z-score is inactive: 0.703.

Which z-score does the source give for CGCGAACUUACCAAAAUGUTT against Endog here?
The z-score was inactive: -0.4.

Which z-score does the source give for GCUGUCAGAAAUCUUCGACTT against E2f4 here?
Its z-score is inactive: 0.402.

Which z-score does the source give for CGUGGGACCUGGUAUGUAATT against Slc22a12 here?
The z-score was inactive: -0.94.

Which z-score does the source give for GCUGAUGGUCAGAGGAAGATT against V1rd12 here?
Its z-score is inactive: 1.34.

For GGGUCACGUGCUGUCUCAUTT against Gm963, which z-score is on record?
The z-score was inactive: 1.73.

Which z-score does the source give for GGAUAUACAAGUUACAGAATT against Icam1 here?
The z-score was inactive: 0.365.

With GCAUCUUAACAAUAACUACTT against Fhl4 as the sequence, how does the z-score read?
The z-score was inactive: -0.334.

Which z-score does the source give for GGCAAAUGGUCUUUAUGCATT against Zfp606 here?
Its z-score is inactive: -0.699.

With GCGAAUGAUAUGUAUCAGATT against Pik3r1 as the sequence, how does the z-score read?
The z-score was inactive: -0.222.

Which z-score does the source give for “CGAGUUUUAUGAAUAAGCUTT against 2600013N14Rik” here?
The z-score was inactive: 0.707.

For CCAAAAAAGUUAGUUGUGGTT against Phf6, which z-score is on record?
Its z-score is inactive: 0.464.

Which z-score does the source give for GGAAUGAAAAACCUACAUGTT against Cxcl13 here?
Its z-score is inactive: 0.672.

Which z-score does the source give for GGAGCAGAUGGUUCAUGUCTT against Olfr547 here?
The z-score was inactive: 2.48.
